The supplement of paper PMC6411743
± gives the standard deviation of the averaged measurements. Only a part is listed here, and it is no random draw.

Protein sequences, listed by entry. Tags and fused reporters are not part of them. Lines headed by an entry give the natural chain unless they say otherwise; changes in a name come on top.
UniProt O75151: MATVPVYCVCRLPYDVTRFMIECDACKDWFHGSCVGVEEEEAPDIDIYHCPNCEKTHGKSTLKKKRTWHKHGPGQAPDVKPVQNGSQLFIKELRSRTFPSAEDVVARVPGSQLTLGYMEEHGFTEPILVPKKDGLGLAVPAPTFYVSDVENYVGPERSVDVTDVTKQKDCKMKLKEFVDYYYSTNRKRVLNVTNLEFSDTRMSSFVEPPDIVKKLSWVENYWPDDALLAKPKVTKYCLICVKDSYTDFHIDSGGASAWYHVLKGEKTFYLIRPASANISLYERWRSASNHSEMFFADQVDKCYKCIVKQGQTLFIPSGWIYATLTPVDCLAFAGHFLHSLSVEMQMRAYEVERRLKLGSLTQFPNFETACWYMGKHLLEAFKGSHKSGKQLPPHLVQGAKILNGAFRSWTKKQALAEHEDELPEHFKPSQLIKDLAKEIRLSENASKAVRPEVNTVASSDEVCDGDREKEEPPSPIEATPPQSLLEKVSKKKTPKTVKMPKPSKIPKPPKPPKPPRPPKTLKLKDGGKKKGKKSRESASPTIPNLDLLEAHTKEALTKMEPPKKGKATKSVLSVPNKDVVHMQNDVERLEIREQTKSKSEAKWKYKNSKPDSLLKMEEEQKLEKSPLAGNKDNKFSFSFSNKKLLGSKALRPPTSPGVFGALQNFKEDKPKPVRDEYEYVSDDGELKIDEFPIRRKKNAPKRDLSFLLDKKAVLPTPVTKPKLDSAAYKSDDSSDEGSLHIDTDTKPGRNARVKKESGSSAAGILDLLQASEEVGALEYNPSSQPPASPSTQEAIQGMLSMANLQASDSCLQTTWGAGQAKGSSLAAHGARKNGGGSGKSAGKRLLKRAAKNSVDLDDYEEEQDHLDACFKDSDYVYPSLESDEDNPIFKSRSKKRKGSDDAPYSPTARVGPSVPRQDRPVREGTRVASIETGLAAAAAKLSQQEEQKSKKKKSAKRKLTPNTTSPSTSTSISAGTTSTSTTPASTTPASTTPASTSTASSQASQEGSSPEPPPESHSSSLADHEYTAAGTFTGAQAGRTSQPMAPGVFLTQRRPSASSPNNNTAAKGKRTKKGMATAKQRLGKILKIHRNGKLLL
UniProt O95169, whole entry: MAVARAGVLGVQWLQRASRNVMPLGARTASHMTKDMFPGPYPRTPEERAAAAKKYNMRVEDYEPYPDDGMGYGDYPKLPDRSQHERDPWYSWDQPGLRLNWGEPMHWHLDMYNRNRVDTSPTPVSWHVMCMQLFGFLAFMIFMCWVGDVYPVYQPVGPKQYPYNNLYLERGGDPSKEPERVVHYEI
UniProt O60701: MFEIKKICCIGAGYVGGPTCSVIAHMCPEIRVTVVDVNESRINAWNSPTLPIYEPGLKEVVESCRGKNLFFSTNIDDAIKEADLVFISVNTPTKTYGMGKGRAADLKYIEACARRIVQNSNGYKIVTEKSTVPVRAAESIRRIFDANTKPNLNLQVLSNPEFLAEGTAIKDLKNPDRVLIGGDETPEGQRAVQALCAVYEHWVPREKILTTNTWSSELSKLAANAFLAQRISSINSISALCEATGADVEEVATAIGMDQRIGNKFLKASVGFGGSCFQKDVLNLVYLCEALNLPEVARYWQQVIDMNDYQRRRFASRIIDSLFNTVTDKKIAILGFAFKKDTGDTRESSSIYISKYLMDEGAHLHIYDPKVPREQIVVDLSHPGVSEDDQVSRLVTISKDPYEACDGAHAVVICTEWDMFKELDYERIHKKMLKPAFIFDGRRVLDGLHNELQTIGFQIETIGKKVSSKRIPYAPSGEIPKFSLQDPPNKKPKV
UniProt O75937: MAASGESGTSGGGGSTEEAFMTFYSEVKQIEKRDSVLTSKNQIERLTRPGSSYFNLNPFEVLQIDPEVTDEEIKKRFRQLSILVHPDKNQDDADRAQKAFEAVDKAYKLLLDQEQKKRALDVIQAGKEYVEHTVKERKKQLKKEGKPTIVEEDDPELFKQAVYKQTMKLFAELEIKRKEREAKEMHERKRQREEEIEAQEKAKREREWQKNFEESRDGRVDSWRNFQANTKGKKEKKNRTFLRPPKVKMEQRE
UniProt O75477: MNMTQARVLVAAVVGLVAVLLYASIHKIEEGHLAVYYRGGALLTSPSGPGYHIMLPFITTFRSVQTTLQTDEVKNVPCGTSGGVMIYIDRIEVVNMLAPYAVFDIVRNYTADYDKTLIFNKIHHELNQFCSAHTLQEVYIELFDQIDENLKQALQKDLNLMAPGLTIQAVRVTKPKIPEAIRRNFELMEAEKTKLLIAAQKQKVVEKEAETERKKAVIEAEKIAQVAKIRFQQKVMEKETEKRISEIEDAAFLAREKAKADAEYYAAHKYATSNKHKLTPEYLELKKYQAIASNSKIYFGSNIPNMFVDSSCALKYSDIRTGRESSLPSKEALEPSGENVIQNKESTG
UniProt O60911: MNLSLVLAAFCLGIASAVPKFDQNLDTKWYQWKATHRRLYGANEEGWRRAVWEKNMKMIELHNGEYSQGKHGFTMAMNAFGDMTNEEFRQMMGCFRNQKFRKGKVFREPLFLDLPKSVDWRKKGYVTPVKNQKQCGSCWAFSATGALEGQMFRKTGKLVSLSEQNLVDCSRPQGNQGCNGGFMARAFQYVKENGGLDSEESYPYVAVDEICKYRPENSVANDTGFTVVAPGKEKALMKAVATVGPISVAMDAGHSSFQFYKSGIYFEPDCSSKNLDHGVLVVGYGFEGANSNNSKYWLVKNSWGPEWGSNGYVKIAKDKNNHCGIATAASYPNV
UniProt O75400: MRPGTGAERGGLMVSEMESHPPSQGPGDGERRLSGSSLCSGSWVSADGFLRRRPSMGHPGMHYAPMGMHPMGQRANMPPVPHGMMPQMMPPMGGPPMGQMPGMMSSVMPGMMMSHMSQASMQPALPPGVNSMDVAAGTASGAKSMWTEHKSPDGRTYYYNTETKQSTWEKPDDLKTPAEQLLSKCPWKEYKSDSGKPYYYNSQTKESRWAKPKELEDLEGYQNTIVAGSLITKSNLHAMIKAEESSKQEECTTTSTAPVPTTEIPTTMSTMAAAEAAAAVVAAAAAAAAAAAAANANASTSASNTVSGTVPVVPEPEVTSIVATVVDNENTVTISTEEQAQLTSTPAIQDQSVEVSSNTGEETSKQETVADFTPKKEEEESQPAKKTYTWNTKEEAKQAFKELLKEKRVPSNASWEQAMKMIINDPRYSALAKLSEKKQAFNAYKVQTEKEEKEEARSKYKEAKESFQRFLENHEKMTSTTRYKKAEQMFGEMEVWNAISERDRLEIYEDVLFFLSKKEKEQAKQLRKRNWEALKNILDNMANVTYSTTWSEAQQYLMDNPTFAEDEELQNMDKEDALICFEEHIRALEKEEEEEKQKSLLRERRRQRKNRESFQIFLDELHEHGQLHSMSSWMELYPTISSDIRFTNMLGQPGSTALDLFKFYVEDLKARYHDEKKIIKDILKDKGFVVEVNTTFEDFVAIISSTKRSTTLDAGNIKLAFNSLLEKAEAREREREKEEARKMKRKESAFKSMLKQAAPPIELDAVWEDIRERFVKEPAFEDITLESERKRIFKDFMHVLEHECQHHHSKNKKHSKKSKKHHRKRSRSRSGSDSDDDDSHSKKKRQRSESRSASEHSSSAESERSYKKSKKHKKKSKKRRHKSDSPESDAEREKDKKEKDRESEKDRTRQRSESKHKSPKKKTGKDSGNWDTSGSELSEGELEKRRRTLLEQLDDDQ
UniProt O60930: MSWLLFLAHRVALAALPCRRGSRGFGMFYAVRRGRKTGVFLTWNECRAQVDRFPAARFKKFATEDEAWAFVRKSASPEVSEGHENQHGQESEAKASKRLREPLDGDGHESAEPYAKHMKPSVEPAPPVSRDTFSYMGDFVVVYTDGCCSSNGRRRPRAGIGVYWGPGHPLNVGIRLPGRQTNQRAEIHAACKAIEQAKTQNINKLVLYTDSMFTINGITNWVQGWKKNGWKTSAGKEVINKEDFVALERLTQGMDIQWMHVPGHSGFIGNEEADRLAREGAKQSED
UniProt O75179: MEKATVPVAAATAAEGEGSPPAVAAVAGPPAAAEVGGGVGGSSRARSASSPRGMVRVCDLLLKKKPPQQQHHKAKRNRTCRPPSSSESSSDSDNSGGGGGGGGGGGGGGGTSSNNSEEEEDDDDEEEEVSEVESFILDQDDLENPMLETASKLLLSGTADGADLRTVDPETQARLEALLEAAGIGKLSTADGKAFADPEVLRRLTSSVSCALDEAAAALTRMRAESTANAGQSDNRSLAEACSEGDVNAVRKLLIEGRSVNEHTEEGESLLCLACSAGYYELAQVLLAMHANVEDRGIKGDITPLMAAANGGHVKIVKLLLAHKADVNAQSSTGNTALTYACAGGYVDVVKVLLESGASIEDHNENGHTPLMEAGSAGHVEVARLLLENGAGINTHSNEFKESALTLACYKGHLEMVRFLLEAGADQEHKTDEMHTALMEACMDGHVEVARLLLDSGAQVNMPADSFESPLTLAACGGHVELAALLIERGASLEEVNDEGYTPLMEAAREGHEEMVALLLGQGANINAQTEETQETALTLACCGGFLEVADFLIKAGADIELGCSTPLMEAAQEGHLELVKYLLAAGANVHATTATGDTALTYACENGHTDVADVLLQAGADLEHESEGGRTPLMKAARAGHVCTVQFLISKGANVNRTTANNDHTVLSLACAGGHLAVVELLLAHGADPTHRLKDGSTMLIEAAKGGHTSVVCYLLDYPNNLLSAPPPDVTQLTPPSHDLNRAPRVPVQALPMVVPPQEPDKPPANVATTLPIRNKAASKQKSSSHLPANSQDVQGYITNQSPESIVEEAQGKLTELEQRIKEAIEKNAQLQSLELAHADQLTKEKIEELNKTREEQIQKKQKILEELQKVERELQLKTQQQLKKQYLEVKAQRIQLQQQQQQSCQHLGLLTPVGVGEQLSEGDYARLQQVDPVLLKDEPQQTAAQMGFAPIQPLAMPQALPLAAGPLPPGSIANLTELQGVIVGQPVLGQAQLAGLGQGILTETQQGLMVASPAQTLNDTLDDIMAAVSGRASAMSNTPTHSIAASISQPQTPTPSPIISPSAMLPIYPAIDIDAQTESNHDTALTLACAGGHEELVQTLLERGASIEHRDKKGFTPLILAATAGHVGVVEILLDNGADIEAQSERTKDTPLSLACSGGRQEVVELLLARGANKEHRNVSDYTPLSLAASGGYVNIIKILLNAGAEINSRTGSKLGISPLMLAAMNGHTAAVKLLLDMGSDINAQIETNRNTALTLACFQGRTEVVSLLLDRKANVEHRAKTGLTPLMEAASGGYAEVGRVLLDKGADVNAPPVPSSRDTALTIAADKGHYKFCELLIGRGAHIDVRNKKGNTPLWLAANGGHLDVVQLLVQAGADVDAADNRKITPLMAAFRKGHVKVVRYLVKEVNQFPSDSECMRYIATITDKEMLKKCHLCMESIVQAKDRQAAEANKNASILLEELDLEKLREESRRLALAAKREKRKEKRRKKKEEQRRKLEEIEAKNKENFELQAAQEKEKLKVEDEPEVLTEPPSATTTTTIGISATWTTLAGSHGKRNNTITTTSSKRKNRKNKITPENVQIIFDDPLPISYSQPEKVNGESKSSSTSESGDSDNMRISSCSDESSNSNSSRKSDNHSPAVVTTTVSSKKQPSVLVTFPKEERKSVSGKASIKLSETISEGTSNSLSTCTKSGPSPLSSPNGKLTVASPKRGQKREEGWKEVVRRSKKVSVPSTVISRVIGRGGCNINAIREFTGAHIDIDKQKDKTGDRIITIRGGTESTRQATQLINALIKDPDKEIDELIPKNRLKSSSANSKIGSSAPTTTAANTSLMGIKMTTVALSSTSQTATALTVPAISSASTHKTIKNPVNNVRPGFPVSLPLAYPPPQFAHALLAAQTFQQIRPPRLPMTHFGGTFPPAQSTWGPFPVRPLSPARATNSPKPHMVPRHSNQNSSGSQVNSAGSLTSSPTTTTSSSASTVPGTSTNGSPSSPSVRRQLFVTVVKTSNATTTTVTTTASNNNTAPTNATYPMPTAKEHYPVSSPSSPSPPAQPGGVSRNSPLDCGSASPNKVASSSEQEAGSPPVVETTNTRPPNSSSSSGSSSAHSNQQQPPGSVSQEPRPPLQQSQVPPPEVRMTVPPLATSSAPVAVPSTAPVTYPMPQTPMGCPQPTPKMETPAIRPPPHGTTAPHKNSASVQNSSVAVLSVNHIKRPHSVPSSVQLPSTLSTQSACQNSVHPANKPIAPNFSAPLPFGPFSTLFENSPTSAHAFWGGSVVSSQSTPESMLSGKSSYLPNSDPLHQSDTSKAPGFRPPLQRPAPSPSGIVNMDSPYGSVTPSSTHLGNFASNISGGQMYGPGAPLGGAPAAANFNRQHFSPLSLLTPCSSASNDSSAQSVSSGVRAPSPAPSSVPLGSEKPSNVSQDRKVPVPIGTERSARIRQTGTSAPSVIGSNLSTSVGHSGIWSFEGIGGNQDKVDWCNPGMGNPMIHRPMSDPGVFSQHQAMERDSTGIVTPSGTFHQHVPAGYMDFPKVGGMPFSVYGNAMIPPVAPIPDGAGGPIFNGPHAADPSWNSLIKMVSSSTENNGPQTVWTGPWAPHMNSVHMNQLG

Compound: Nc1ncnc2c1ncn2[C@@H]1O[C@H](COP(=O)(O)OP(=O)(O)NP(=O)(O)O)[C@@H](O)[C@H]1O [adenylyl imidodiphosphate]
Assay: NP40-soluble protein abundance relative to vehicle (solubility fold change) (ratio); higher = more soluble protein in presence of AMP-PNP
In short: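 In three independent experiments, Jurkat crude lysate made by Dounce homogenisation was treated for 10 min at room temperature and then 3 min at 37 °C with eight concentrations ranging from 0.1 to 10 mM. It was then solubilised with 0.8% NP40 plus benzonase for 60 min at 4 °C and ultracentrifuged. The supernatant was TMT-labelled for LC-MS/MS, and each value is the fold change against the detergent-processed vehicle for the same replicate, using vsn-normalised intensities.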

Target | NP40-soluble protein abundance (concentration: 1mM) | NP40-soluble protein abundance (concentration: 2mM) | NP40-soluble protein abundance (concentration: 4mM) | NP40-soluble protein abundance (concentration: 6mM) | NP40-soluble protein abundance (concentration: 8mM) | NP40-soluble protein abundance (concentration: 10mM)
PHF2 (UniProt O75151) | 1.03 ± 0.011 | 1.09 ± 0.042 | 1.09 ± 0.044 | 1.11 ± 0.044 | 1.14 ± 0.051 | 1.27 ± 0.079
SLC25A12 (UniProt O75746) | 0.98 ± 0.011 | 0.943 ± 0.082 | 0.985 ± 0.048 | 0.973 ± 0.035 | 0.977 ± 0.041 | 0.986 ± 0.046
UniProt O94762 and related entries | 1 ± 0.05 | 1.03 ± 0.093 | 1 ± 0.041 | 1.02 ± 0.041 | 1.02 ± 0.058 | 1.01 ± 0.071
UniProt O94973 and related entries | 1.02 ± 0.028 | 0.977 ± 0.029 | 1.05 ± 0.033 | 1.06 ± 0.037 | 1.08 ± 0.03 | 1.09 ± 0.033
UniProt O75787 and related entries | 1.045 ± 0.0093 | 1.03 ± 0.02 | 1.02 ± 0.029 | 1.01 ± 0.024 | 1 ± 0.045 | 1.05 ± 0.076
UniProt O95169 and related entries | 0.9691 ± 0.0052 | 1 ± 0.057 | 0.916 ± 0.027 | 0.918 ± 0.045 | 0.922 ± 0.043 | 0.893 ± 0.037
UniProt O94906 and related entries | 1.03 ± 0.044 | 0.984 ± 0.018 | 1.03 ± 0.077 | 1.07 ± 0.12 | 1.11 ± 0.12 | 1.22 ± 0.19
ARIH2 (UniProt O95376) | 1.02 ± 0.038 | 1.03 ± 0.022 | 1.04 ± 0.051 | 0.983 ± 0.026 | 1.01 ± 0.017 | 1.01 ± 0.042
UniProt O94874 | 1.02 ± 0.014 | 1.02 ± 0.022 | 1.07 ± 0.028 | 1.09 ± 0.025 | 1.08 ± 0.015 | 1.1 ± 0.011
UGDH (UniProt O60701) | 0.985 ± 0.029 | 0.939 ± 0.059 | 0.997 ± 0.025 | 0.984 ± 0.032 | 0.981 ± 0.022 | 0.9808 ± 0.0012
PRPSAP2 (UniProt O60256) | 0.91 ± 0.07 | 0.85 ± 0.12 | 0.935 ± 0.18 | 0.862 ± 0.13 | 0.877 ± 0.16 | 0.85 ± 0.16
TRMU (UniProt O75648) | 0.971 ± 0.029 | 0.942 ± 0.042 | 0.9866 ± 0.0065 | 1.02 ± 0.044 | 1.02 ± 0.052 | 1.02 ± 0.049
UTP20 (UniProt O75691) | 1.04 ± 0.065 | 1.04 ± 0.011 | 1.04 ± 0.039 | 1.03 ± 0.034 | 1.05 ± 0.016 | 1.08 ± 0.055
DHX16 (UniProt O60231) | 1.03 ± 0.014 | 1.031 ± 0.0054 | 1.03 ± 0.013 | 1.04 ± 0.019 | 1.04 ± 0.024 | 1.05 ± 0.043
UBXN7 (UniProt O94888) | 1.02 ± 0.068 | 1.01 ± 0.065 | 1.01 ± 0.077 | 0.982 ± 0.033 | 0.989 ± 0.038 | 0.976 ± 0.085
FRYL (UniProt O94915) | 0.96 ± 0.041 | 0.95 ± 0.082 | 0.955 ± 0.059 | 0.96 ± 0.049 | 0.938 ± 0.053 | 0.958 ± 0.078
UniProt O60502 | 0.981 ± 0.015 | 0.956 ± 0.04 | 0.972 ± 0.023 | 0.926 ± 0.023 | 0.917 ± 0.016 | 0.915 ± 0.0093

Part of the list above, with tabs:
Target	NP40-soluble protein abundance (concentration: 1mM)	NP40-soluble protein abundance (concentration: 2mM)	NP40-soluble protein abundance (concentration: 4mM)	NP40-soluble protein abundance (concentration: 6mM)	NP40-soluble protein abundance (concentration: 8mM)	NP40-soluble protein abundance (concentration: 10mM)
UniProt O94762 and related entries	1 ± 0.05	1.03 ± 0.093	1 ± 0.041	1.02 ± 0.041	1.02 ± 0.058	1.01 ± 0.071
UniProt O94973 and related entries	1.02 ± 0.028	0.977 ± 0.029	1.05 ± 0.033	1.06 ± 0.037	1.08 ± 0.03	1.09 ± 0.033
UniProt O75787 and related entries	1.045 ± 0.0093	1.03 ± 0.02	1.02 ± 0.029	1.01 ± 0.024	1 ± 0.045	1.05 ± 0.076
UniProt O95169 and related entries	0.9691 ± 0.0052	1 ± 0.057	0.916 ± 0.027	0.918 ± 0.045	0.922 ± 0.043	0.893 ± 0.037
UniProt O94906 and related entries	1.03 ± 0.044	0.984 ± 0.018	1.03 ± 0.077	1.07 ± 0.12	1.11 ± 0.12	1.22 ± 0.19
ARIH2 (UniProt O95376)	1.02 ± 0.038	1.03 ± 0.022	1.04 ± 0.051	0.983 ± 0.026	1.01 ± 0.017	1.01 ± 0.042
UniProt O94874	1.02 ± 0.014	1.02 ± 0.022	1.07 ± 0.028	1.09 ± 0.025	1.08 ± 0.015	1.1 ± 0.011

The listing continues.

Target | NP40-soluble protein abundance (concentration: 1mM) | NP40-soluble protein abundance (concentration: 2mM) | NP40-soluble protein abundance (concentration: 4mM) | NP40-soluble protein abundance (concentration: 6mM) | NP40-soluble protein abundance (concentration: 8mM) | NP40-soluble protein abundance (concentration: 10mM)
IPO7 (UniProt O95373) | 0.984 ± 0.023 | 0.96 ± 0.014 | 0.978 ± 0.03 | 1.01 ± 0.016 | 1.02 ± 0.021 | 0.987 ± 0.04
UniProt O60711 and related entries | 1.061 ± 0.0069 | 1.1 ± 0.024 | 1.07 ± 0.032 | 1.01 ± 0.013 | 1.03 ± 0.016 | 1.02 ± 0.043
UniProt O75081 and related entries | 1 ± 0.031 | 1.03 ± 0.015 | 1.02 ± 0.02 | 1.05 ± 0.035 | 1.03 ± 0.05 | 1.03 ± 0.042
DNAJC8 (UniProt O75937) | 1.01 ± 0.12 | 1.14 ± 0.12 | 1.03 ± 0.14 | 1.03 ± 0.062 | 1.07 ± 0.056 | 1.01 ± 0.14
GMDS (UniProt O60547) | 1.02 ± 0.021 | 0.949 ± 0.095 | 1.02 ± 0.035 | 0.965 ± 0.026 | 1.03 ± 0.047 | 0.95 ± 0.024
UniProt O60664 and related entries | 0.972 ± 0.0099 | 1.05 ± 0.11 | 0.949 ± 0.039 | 1.04 ± 0.052 | 0.97 ± 0.035 | 1.02 ± 0.061
ERLIN1 (UniProt O75477) | 0.976 ± 0.09 | 0.991 ± 0.058 | 0.927 ± 0.11 | 0.986 ± 0.11 | 0.943 ± 0.096 | 0.991 ± 0.18
CTSV (UniProt O60911) | 0.981 ± 0.042 | 1.04 ± 0.028 | 0.997 ± 0.042 | 1 ± 0.024 | 0.976 ± 0.022 | 1.02 ± 0.027
UniProt O75390 and related entries | 0.966 ± 0.094 | 0.834 ± 0.23 | 0.977 ± 0.042 | 0.846 ± 0.26 | 0.941 ± 0.088 | 0.897 ± 0.12
UniProt O75925 and related entries | 1.01 ± 0.028 | 0.957 ± 0.042 | 1.01 ± 0.025 | 0.937 ± 0.0065 | 1.028 ± 0.0088 | 0.963 ± 0.032
UniProt O75400 and related entries | 1.03 ± 0.039 | 1.005 ± 0.0091 | 0.965 ± 0.041 | 1.01 ± 0.017 | 1.03 ± 0.015 | 1.1 ± 0.026
RNASEH1 (UniProt O60930) | 1.03 ± 0.032 | 1.01 ± 0.023 | 0.997 ± 0.02 | 1.04 ± 0.051 | 1.09 ± 0.043 | 1.1 ± 0.014
UniProt O95251 and related entries | 1.11 ± 0.031 | 1.17 ± 0.06 | 1.18 ± 0.063 | 1.2 ± 0.073 | 1.25 ± 0.077 | 1.36 ± 0.088
UniProt O75396 | 0.983 ± 0.04 | 1.01 ± 0.07 | 0.962 ± 0.051 | 0.97 ± 0.038 | 0.953 ± 0.021 | 0.947 ± 0.048
UniProt O75179 and related entries | 1.037 ± 0.0076 | 1.05 ± 0.05 | 1.069 ± 0.0067 | 1.07 ± 0.04 | 1.08 ± 0.022 | 1.13 ± 0.018
ZBED4 (UniProt O75132) | 1.01 ± 0.023 | 1.01 ± 0.036 | 0.979 ± 0.03 | 0.965 ± 0.031 | 0.966 ± 0.024 | 0.984 ± 0.026
UniProt O94916 and related entries | 1.01 ± 0.056 | 1.02 ± 0.049 | 1 ± 0.044 | 0.988 ± 0.037 | 1.03 ± 0.049 | 1 ± 0.046
